Reference: publication PMC9500918, “Extended N-Terminal Acetyltransferase Naa50 in Filamentous Fungi Adds to Naa50 Diversity” (International Journal of Molecular Sciences, 2022)
Results are given in words; binding and its absence hold for the method and conditions named. For some assays here: Binding can be weak; no strength is given. For some assays here: In cells and extracts the contact can be indirect. One block for each molecule: values may come before it.

Amino acid sequences for entries named in this document (tags omitted). A change or cut given only in a name is not applied to a line headed by its entry.
UniProt G0S4M4: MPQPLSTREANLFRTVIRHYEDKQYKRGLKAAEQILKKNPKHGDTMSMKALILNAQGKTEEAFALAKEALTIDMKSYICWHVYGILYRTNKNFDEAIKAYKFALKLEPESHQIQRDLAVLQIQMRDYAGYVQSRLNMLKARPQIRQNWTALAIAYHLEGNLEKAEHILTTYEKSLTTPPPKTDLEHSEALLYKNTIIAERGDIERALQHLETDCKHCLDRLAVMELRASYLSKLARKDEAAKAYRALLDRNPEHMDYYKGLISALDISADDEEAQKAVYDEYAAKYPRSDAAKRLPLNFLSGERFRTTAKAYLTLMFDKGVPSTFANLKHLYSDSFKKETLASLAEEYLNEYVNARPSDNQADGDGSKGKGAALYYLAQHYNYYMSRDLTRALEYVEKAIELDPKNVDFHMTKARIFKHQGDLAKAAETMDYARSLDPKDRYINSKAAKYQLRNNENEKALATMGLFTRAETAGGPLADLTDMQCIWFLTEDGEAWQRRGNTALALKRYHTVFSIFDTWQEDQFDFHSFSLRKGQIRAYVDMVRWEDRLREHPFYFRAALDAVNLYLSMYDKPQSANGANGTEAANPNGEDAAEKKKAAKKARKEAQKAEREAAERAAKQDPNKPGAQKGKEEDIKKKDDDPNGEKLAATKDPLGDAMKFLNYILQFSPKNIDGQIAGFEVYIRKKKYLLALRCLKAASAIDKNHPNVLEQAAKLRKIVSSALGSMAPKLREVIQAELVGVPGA
UniProt G0S1V5: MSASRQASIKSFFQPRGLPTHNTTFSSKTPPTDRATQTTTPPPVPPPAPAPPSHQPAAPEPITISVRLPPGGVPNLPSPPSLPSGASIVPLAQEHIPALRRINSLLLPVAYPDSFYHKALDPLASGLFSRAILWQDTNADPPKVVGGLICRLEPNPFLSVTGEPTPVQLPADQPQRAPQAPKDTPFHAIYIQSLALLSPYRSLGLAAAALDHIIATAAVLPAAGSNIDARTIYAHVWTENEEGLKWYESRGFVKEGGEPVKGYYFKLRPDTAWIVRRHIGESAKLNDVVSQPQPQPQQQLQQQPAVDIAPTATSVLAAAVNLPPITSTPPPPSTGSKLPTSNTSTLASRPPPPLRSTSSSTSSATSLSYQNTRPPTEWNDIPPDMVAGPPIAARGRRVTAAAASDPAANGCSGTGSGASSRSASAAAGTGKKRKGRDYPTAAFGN
UniProt G0SCY6: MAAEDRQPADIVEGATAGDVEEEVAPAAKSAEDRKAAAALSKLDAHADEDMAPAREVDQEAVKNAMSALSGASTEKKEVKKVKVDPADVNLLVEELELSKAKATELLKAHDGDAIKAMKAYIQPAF
UniProt G0SCS3: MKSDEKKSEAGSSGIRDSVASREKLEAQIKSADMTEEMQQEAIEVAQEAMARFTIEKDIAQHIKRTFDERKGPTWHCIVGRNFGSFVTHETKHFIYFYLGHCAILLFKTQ

Assays:
[1] = target: full-length CtNaa15 with C-terminal Flag-TEV-protein A tag (Chaetomium thermophilum) (UniProt G0S4M4); test: pull-down; pull-out of protein A-tagged Naa15 or Naa50 from cleared C. thermophilum lysate on IgG Sepharose, 500 mM NaCl, elution by TEV cleavage; SDS-PAGE stained with Coomassie
[2] = target: protein A-TEV-Flag-tagged full-length CtNaa50 (Chaetomium thermophilum) (UniProt G0S1V5); test: as above
[3] = target: CtNaa50_(1-289) (Chaetomium thermophilum) (UniProt G0S1V5); test: SEC; analytical SEC on Superdex 200 10/300 GL in buffer G500 (20 mM pH 7.5 HEPES, 500 mM NaCl), 10 min incubation of the proteins before the run; peak fractions on Coomassie-stained SDS-PAGE; both purified
[4] = target: CtNaa50_(82-289) with C-terminal hexa-histidine tag (Chaetomium thermophilum); test: crystal structure; sitting drop at 18 °C, CtNaa50_(82-289) mixed 1:2 (molar) with CoA-Ac-MVNAL; 1.1 Å; both purified
[5] = target: CtNaa50_(1-289) (Chaetomium thermophilum) (UniProt G0S1V5); test: nanoDSF (thermal shift); 10 µM protein with or without 100 µM CoA-Ac-MVNAL in buffer G500, 15-95 °C at 1.5 °C/min, triplicates; both purified
[6] = target: CtNaa50_(82-289) with C-terminal hexa-histidine tag (Chaetomium thermophilum); test: as above
[7] = target: CtNaa50_(82-445) (Chaetomium thermophilum); test: as above
[8] = target: protein A-TEV-Flag-tagged full-length CtNaa50 (Chaetomium thermophilum) (UniProt G0S1V5); test: as above

binding [1]: binds | binding [2]: no binding
Molecule: CtHypK (endogenous) (from UniProt G0SCY6)

binding [3]: binds
Molecule: CtDLC1-His6 (from UniProt G0SCS3)

binding [4]: binds | binding [5]: binds | binding [6]: binds | binding [7]: binds | binding [8]: binds
B1: bisubstrate analog CoA-Ac-MVNAL (peptide)
peptide: MVNAL
modifications: CoA-Ac- on the N-terminus (bisubstrate analog CoA-Ac-MVNAL)
